From article PMC8783019
No constants are given. Whether binding was seen depends on the method and setting. In cells and extracts the contact can be indirect. Some results given as binding are weak or reduced against the parent protein; the word gives no strength. Sequences can lack the tags named with a protein.

Assays:
[1] = target: T1, Myc-tagged MVK (Arabidopsis thaliana) (UniProt P46086); test: co-IP; transient co-expression in N. benthamiana leaves, infiltrated with 200 uM ATP for 30 min or 2 mM MES pH 5.7; lysate in 50 mM Tris-HCl pH 7.5, 250 mM NaCl, 0.5% Triton-X 100; precipitated with anti-Myc and protein A resin at 4 C, blotted with anti-HA and anti-Myc
T1 sequence: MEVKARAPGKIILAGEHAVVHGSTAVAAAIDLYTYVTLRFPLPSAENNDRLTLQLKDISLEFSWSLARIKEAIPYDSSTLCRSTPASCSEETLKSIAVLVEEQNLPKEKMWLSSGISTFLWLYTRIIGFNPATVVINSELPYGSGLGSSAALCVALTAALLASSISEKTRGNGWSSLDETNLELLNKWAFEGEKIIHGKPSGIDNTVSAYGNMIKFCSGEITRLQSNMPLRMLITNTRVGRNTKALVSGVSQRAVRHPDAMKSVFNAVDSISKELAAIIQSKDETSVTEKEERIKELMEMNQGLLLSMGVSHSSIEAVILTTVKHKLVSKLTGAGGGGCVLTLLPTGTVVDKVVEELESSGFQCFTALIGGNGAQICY

[2] = target: T2, MKK3^C (MKK3 fused to the C-terminal luciferase fragment) (Arabidopsis thaliana) (UniProt O80396); test: split reporter; split-luciferase complementation imaging in N. benthamiana leaves, 2 days after Agrobacterium infiltration; with 200 uM ATP or mock (2 mM MES pH 5.7); 1 mM D-luciferin, CCD camera
T2 sequence: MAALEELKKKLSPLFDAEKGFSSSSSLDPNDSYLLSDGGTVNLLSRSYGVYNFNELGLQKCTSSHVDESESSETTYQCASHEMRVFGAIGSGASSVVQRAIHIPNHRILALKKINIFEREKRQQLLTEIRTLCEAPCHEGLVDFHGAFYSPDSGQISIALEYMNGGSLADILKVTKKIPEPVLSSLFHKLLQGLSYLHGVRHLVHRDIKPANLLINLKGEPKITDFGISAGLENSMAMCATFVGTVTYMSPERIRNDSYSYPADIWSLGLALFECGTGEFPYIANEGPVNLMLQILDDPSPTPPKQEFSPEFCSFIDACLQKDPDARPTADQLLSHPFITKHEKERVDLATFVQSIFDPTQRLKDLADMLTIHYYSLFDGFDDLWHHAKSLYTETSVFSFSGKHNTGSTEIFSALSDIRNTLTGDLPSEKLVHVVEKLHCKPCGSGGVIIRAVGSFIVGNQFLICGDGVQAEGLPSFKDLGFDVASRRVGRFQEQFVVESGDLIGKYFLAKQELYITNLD

[3] = target: T3, MVK^C (MVK fused to the C-terminal luciferase fragment) (Arabidopsis thaliana) (UniProt P46086); test: as above
T3 sequence: T1 sequence

[4] = target: T4, MVK fused to split YFP (BiFC) (Arabidopsis thaliana) (UniProt P46086); test: split reporter; BiFC with split YFP in Arabidopsis leaf protoplasts, 24 h after PEG-mediated transformation, 23 C, dark; FM4-64 as plasma membrane stain
T4 sequence: T1 sequence

[5] = target: T5, MKK3 fused to split YFP (BiFC) (Arabidopsis thaliana) (UniProt O80396); test: as above
T5 sequence: T2 sequence

B1: HA-tagged P2K1 (receptor, UniProt Q9LSR8 22-766)
chain: QQETSFVYESFLDRQNLYLDKSAIVLPSGLLQLTNASEHQMGHAFHKKPIEFSSSGPLSFSTHFVCALVPKPGFEGGHGIVFVLSPSMDFTHAESTRYLGIFNASTNGSSSYHVLAVELDTIWNPDFKDIDHNHVGIDVNSPISVAIASASYYSDMKGSNESINLLSGNPIQVWVDYEGTLLNVSVAPLEVQKPTRPLLSHPINLTELFPNRSSLFAGFSAATGTAISDQYILWWSFSIDRGSLQRLDISKLPEVPHPRAPHKKVSTLIILLPVCLAILVLAVLAGLYFRRRRKYSEVSETWEKEFDAHRFSYRSLFKATKGFSKDEFLGKGGFGEVYRGNLPQGREIAVKRVSHNGDEGVKQFVAEVVSMRCLKHRNLVPLFGYCRRKRELLLVSEYMPNGSLDEHLFDDQKPVLSWSQRLVVVKGIASALWYLHTGADQVVLHRDVKASNIMLDAEFHGRLGDFGMARFHEHGGNAATTAAVGTVGYMAPELITMGASTGTDVYAFGVFMLEVTCGRRPVEPQLQVEKRHMIKWVCECWKKDSLLDATDPRLGGKFVAEEVEMVMKLGLLCSNIVPESRPTMEQVVLYLNKNLPLPDFSPYTLGIGTFAPVLVDASSLVVSSASWSLSGPSMSSSSPNHSPYAWQSTDQPWGQTIDTKNSLHIVAEPEKPSPAVKMVTLPAEDPQSNHSSISSQRVQPVKREKRRLHQILVAFPWINKQYFKLGLPKHIVHVSLFFFLQLARL
[1]
  binding: binds

B2: P2K1^N (P2K1 fused to the N-terminal luciferase fragment) (receptor, UniProt Q9LSR8 22-766)
chain: B1 chain
[2]
  binding: no binding
[3]
  binding: binds

B3: P2K1 fused to split YFP (BiFC) (receptor, UniProt Q9LSR8 22-766)
chain: B1 chain
[4]
  binding: binds
[5]
  binding: no binding
